No constants are given. Whether binding was seen depends on the method and setting. Binding seen in cells or lysates may run through a third protein. Some entries that bind do so weakly or less than the wild type.
Target: cyclin-dependent kinase 8 (CDK8) (human (endogenous in D458)) (UniProt P49336)
Assay: co-IP

Chains of the proteins cited; added tags and fusions are not shown.
UniProt P49336: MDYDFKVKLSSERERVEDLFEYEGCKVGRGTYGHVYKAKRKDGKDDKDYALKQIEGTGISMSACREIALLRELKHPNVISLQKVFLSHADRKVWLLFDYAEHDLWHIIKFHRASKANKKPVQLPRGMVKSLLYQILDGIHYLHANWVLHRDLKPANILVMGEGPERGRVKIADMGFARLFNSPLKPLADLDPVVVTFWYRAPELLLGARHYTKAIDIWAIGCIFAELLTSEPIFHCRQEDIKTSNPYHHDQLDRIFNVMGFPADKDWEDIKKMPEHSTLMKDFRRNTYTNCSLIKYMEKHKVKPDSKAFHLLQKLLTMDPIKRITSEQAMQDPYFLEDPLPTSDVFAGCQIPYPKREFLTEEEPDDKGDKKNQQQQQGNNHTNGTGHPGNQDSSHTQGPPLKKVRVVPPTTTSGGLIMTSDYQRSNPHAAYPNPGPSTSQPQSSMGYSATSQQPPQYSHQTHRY
UniProt Q13541: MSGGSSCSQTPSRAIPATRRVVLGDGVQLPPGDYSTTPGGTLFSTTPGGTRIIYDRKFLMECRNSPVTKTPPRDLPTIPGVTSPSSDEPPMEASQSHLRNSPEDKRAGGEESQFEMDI

With “phospho-4EBP1 (T37/46) (from UniProt Q13541 1-118)” the binding was “binds”.
